Where “and” joins values, the source holds several entries; their conditions need not be identical. Equal values may be shown once. The inconclusive results got no clear call from the source; some entries with a clear call stand among them for comparison. For some assays here: A potency beside an inconclusive call is a rough fit, not a confirmed value. More than one record can exist for a structure, and the calls need not agree. Calls of active or inactive are those of the source. Rule for the calls: active = hit-call score of the fitted dose curve at least 0.9, where 1 is the maximum; inconclusive = response in the unintended direction; inactive = score below 0.9.
Assays:
[1] = target: rat Monoamine Oxidase, MAO-B, Peripheral (MAOBP), Maob (gene 25750) (UniProt P19643); assay: NVS_ENZ_rMAOBP: NovaScreen (NVS) Enzymatic Assay for rat Monoamine Oxidase, MAO-B, Peripheral (MAOBP) (AID 2283242)
[2] = TOX21_p53_BLA_p2_viability: Viability Assessment in the Tox21 HCT-116 p53 Agonism Beta-lactamase Assay, Phase 2 (AID 2283591);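 note: compound exposure lasted 16 h at 37 °C; actives lower the ATP signal meaning cytotoxicity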
In short: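 HCT116 p53-bla cells, 4000/well, dosed after 5 h plating (217-fold dilution of DMSO stocks) and incubated 16 h at 37C. Viability taken as cellular ATP by CellTiter-Glo luminescence after 30 min RT; signal loss marks cytotoxicity.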

Sequences of proteins named here, by UniProt entry; tags and fusion partners are left off.
UniProt P19643, whole entry, looked up: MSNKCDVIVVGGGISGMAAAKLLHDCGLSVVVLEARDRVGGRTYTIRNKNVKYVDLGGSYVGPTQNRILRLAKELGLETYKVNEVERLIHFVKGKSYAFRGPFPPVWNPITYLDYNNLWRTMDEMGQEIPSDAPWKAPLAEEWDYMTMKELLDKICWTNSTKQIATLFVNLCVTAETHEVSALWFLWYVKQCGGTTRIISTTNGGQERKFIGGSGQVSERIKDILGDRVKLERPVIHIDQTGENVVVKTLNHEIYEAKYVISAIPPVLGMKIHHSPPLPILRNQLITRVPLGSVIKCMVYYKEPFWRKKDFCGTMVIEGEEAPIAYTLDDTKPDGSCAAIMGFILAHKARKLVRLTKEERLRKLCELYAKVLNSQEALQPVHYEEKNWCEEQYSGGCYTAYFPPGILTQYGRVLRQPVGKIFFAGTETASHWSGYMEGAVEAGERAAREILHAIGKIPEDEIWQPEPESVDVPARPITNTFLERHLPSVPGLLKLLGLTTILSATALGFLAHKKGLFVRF
UniProt P04637, whole entry, looked up: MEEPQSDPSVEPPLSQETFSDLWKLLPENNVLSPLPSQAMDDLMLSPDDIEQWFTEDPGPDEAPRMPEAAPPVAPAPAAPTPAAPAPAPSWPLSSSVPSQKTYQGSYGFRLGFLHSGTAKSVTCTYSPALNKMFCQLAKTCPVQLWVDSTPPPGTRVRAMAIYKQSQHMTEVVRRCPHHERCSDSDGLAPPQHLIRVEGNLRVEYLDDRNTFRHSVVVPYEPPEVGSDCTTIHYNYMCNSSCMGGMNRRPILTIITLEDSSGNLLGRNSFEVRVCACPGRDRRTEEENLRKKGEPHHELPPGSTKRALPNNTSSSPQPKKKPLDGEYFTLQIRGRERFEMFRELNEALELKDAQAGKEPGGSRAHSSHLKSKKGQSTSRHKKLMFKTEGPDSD
UniProt Q01827, whole entry, looked up: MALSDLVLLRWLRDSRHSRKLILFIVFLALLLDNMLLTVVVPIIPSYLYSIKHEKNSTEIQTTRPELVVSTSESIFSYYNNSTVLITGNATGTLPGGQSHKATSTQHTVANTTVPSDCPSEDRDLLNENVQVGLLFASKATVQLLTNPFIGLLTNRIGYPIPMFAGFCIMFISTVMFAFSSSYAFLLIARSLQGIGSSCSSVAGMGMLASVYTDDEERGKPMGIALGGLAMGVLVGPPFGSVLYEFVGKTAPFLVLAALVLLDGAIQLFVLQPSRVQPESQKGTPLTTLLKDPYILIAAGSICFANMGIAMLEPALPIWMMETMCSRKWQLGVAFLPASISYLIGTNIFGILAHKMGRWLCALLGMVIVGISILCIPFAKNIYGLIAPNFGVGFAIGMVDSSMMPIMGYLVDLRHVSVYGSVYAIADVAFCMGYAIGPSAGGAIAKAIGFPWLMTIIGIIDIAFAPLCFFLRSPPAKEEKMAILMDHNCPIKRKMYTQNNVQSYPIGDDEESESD
UniProt P19785, whole entry, looked up: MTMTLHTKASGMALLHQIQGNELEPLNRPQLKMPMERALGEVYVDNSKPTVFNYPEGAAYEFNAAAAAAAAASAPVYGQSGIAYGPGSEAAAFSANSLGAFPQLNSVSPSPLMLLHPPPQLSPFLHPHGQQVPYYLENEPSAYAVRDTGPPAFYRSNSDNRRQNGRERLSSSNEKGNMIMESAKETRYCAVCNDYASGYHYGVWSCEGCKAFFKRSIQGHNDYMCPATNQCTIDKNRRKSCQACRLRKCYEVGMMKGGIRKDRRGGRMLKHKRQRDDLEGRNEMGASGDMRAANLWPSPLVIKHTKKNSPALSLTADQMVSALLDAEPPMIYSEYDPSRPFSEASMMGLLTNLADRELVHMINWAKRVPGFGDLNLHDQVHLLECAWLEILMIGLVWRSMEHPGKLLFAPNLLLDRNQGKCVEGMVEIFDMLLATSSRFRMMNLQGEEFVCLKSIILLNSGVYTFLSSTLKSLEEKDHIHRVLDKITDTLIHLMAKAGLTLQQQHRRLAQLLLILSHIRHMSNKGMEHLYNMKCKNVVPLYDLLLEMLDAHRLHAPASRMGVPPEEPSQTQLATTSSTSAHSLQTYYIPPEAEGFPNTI
UniProt P03372, whole entry, looked up: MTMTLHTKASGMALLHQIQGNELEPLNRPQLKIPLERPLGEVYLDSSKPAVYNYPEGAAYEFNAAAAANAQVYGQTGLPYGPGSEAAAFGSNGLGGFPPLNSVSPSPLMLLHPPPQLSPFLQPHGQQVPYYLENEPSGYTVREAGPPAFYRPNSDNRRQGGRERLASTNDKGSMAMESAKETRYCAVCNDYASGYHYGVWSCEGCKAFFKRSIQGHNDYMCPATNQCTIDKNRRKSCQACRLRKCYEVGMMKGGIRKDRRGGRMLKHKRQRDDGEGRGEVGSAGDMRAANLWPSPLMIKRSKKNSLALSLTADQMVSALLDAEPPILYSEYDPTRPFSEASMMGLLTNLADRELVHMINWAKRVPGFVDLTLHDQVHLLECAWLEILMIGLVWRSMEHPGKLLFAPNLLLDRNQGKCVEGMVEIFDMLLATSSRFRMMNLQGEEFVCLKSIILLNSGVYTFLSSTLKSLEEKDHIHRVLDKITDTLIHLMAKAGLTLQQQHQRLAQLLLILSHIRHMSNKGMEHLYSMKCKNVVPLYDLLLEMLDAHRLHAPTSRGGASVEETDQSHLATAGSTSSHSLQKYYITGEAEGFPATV
UniProt P49884, whole entry, looked up: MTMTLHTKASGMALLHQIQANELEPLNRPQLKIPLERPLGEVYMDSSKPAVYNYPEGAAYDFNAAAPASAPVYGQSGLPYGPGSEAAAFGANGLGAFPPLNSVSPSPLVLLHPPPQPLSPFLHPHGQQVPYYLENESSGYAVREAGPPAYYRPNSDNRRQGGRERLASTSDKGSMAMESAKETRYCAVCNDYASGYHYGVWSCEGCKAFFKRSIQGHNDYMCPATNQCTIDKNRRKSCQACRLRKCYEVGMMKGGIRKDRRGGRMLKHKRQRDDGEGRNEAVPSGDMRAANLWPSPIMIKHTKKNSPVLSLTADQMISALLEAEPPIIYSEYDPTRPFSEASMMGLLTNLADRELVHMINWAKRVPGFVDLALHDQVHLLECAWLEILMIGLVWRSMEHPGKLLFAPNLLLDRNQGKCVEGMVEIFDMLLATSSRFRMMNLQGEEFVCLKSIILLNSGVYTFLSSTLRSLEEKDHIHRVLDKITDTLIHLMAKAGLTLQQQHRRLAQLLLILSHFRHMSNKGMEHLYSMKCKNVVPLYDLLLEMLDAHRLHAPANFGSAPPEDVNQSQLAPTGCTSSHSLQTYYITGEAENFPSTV

[3] = target: Cellular tumor antigen p53 (Homo sapiens) (UniProt P04637); assay: TOX21_p53_BLA_p2_ratio: Tox21 HCT-116 p53 Agonism Beta-lactamase Assay, Ratio, Phase 2 (AID 2283592)
In short: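 HCT116 p53-bla; 4000 cells/well; 5 h pre-incubation; cpd in DMSO, 217-fold dilution; 16 h 37C/5% CO2; CCF4-AM 2 h RT; Ex 405, Em 460/530 ratio; DMSO = baseline; positive fitting direction.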

[4] = TOX21_p53_BLA_p3_viability: Viability Assessment in the Tox21 HCT-116 p53 Agonism Beta-lactamase Assay, Phase 3 (AID 2283593);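 note: cells exposed to compound for 16 h before reading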
In short: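 HCT116 cells, 4000/well, dosed 5 h after plating by pin transfer (217-fold dilution from DMSO stock) and incubated 16 h at 37C, 5% CO2. Viability read as ATP luminescence with CellTiter-Glo after 30 min at room temperature.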

[5] = target: Norway rat Vesicular Monoamine Transporter (VMAT2), neurotransmitter transporter, Slc18a2 (gene 25549) (UniProt Q01827); assay: NVS_TR_rVMAT2: NovaScreen (NVS) Transporter Assay for Norway rat Vesicular Monoamine Transporter (VMAT2), neurotransmitter transporter (AID 2283376);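 note: actives lower the bound radioligand signal below the DMSO level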
In short: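 Radioligand displacement binding on rat forebrain tissue preparation, filter-based scintillation read-out 1 hour after dosing. Primary screen in duplicate at 25 uM, then concentration series for actives; loss of signal versus DMSO.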

[6] = target: mouse Estrogen Receptor alpha (Era), Esr1 (gene 13982) (UniProt P19785); assay: NVS_NR_mERa: NovaScreen (NVS) Nuclear Receptor Binding Assay for mouse Estrogen Receptor alpha (Era) (AID 2283378);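 note: hit means loss of bound radioligand signal relative to DMSO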
In short: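 Extracted mouse Era incubated with tritiated or iodinated radioligand plus test chemical, 18 h. Bound fraction separated on filters, counted by scintillation. DMSO = negative control/baseline; duplicate single-point at 25 uM, then concentration-response follow-up.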

[7] = target: Cellular tumor antigen p53 (Homo sapiens) (UniProt P04637); assay: TOX21_p53_BLA_p3_ratio: Tox21 HCT-116 p53 Agonism Beta-lactamase Assay, Ratio, Phase 3 (AID 2283596)
In short: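 HCT116 p53-bla cells (4000/well) given compound in DMSO (217-fold dilution) after 5 h, incubated 16 h at 37C. CCF4-AM substrate 2 h at room temperature; 460/530 nm emission ratio, gain fitted against DMSO.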

[8] = TOX21_p53_BLA_p4_viability: Viability Assessment in the Tox21 HCT-116 p53 Agonism Beta-lactamase Assay, Phase 4 (AID 2283597);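 note: hits lower the luminescence signal meaning cytotoxicity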
In short: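 Cells plated, 5 h pre-incubation; DMSO compounds pinned (217-fold dilution); 16 h, 37C/5% CO2; CCF4-AM 2 h RT; CellTiter-Glo 30 min RT; luminescence read.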

[9] = target: Cellular tumor antigen p53 (Homo sapiens) (UniProt P04637); assay: TOX21_p53_BLA_p5_ratio: Tox21 HCT-116 p53 Agonism Beta-lactamase Assay, Ratio, Phase 5 (AID 2283599)
In short: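 HCT-116 p53-bla cells (4000/well) plated 5 h, dosed with compound (217-fold DMSO dilution) for 16 h at 37 C; CCF4-AM substrate 2 h at room temperature. Activity is the 460/530 nm emission ratio (405 nm excitation), fitted in gain-of-signal direction versus DMSO.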

[10] = TOX21_p53_BLA_p5_viability: Viability Assessment in the Tox21 HCT-116 p53 Agonism Beta-lactamase Assay, Phase 5 (AID 2283600)
In short: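 4000 cells/well; 5 h pre-incubation; DMSO compounds pin-transferred, 217-fold dilution; 16 h, 37C/5% CO2; CCF4-AM 2 h RT; CellTiter-Glo 30 min RT; luminescence.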

[11] = target: Cellular tumor antigen p53 (Homo sapiens) (UniProt P04637); assay: TOX21_p53_BLA_p4_ratio: Tox21 HCT-116 p53 Agonism Beta-lactamase Assay, Ratio, Phase 4 (AID 2283601)
In short: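 HCT-116 p53 beta-lactamase reporter cells (4000/well) preincubated 5 h, then compound (217-fold dilution of DMSO stock) for 16 h at 37C. CCF4-AM substrate added 2 h at room temperature; 460/530 nm emission ratio fitted upward versus DMSO.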

[12] = ACEA_ER_AUC_viability: ACEA Biosciences xCELLigence Real-Time Cell Analysis on Estrogen Receptor Agonism for Viability (AID 2283782);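 note: continuous compound exposure with impedance area under curve over 80 h; hit means loss of impedance signal meaning reduced cell growth or viability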
In short: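 T47D cells preconditioned in phenol red-free RPMI with charcoal-stripped FBS, then dosed with 8-point 1:4 series from 100 uM (up to 0.5% DMSO). Impedance monitored up to ~80 h; area-under-curve loss versus DMSO taken as viability.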

[13] = CCTE_Harrill_HTTr_CellCount_MCF7: CCTE's Cell Proliferation Assessment for the High-Throughput Transcriptomics (HTTr) Platform, Harrill Lab (AID 2284012);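 note: cells exposed to compound for six hours; intended direction is loss of nuclei count meaning fewer cells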
In short: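 MCF-7 cells were exposed for 6 h to an eight-point dilution series; Hoechst-labeled nuclei were counted by high content imaging. Curves were fitted bidirectionally against DMSO as negative control and baseline, with signal loss indicating reduced cell count.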

[14] = target: Estrogen receptor (Homo sapiens) (UniProt P03372); assay: NVS_NR_hER: NovaScreen (NVS) Nuclear Receptor Binding Assay for human Estrogen Receptor (ER) (AID 2283348)
In short: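 Radioligand competitive displacement binding to estrogen receptor from MCF7 extract, cell-free; 18 h after dosing, scintillation read-out. Primary screen in duplicate at 25 uM; actives followed up in concentration series; loss of signal vs DMSO.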

[15] = target: bovine Estrogen Receptor (ER), ESR1 (gene 407238) (UniProt P49884); assay: NVS_NR_bER: NovaScreen (NVS) Nuclear Receptor Binding Assay for bovine Estrogen Receptor (ER) (AID 2283345);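 note: actives lower the bound radioligand count which means they displace the ER ligand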
In short: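 Displacement of a radioligand from estrogen receptor in bovine uterine membrane preparations; scintillation signal taken at 18 hours, DMSO as baseline. Single-concentration duplicates (25 uM) preceded concentration-response follow-up of actives.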

O=C(N[C@@H](Cc1ccccc1)[C@@H](O)C(=O)N1C[C@@H](O)[C@@H](O)C1)c1cc2cc(Cl)ccc2[nH]1
AC50 [1]: inconclusive: 0.066 µM

CCC(C)Br (configuration not stated)
AC50 [2]: inconclusive: 48.5 µM
AC50 [3]: inconclusive: 48.5 µM
AC50 [4]: inconclusive: 48.5 µM

Oc1ccc2c(c1)-c1ccccc1C2
outcome [5]: inactive

COP(=S)(OC)Oc1cc(Cl)c(Br)cc1Cl
AC50 [6]: inconclusive: 44.3 µM
outcome [2]: inactive
AC50 [7]: active: 46.8 µM
outcome [8]: inactive
outcome [9]: inactive
AC50 [10]: inconclusive: 46.1 µM
AC50 [11]: active: 79.6 µM
AC50 [12]: active: 92.6 µM
AC50 [13]: inconclusive: 50 µM

O=C(O)CC[N+](=O)[O-]
AC50 [2]: inconclusive: 11.7 µM
AC50 [3]: inconclusive: 47.3 µM
outcome [3]: inactive
outcome [9]: inactive
outcome [10]: inactive

CC(Oc1ccc(Oc2ncc(C(F)(F)F)cc2Cl)cc1)C(=O)O (configuration not stated)
AC50 [6]: inconclusive: 25 µM
outcome [3]: inactive
outcome [4]: inactive
AC50 [9]: inconclusive: 20.7 µM
AC50 [10]: inconclusive: 3.57e-06 µM
AC50 [11]: inconclusive: 46.1 µM

Cc1ccccc1
AC50 [2]: inconclusive: 45.3 µM and inconclusive: 85.6 µM
outcome [2]: inactive
AC50 [3]: inconclusive: 45.3 µM
AC50 [4]: inconclusive: 47.1 µM
AC50 [7]: inconclusive: 45.3 µM and inconclusive: 47.1 µM
outcome [7]: inactive
AC50 [8]: inconclusive: 45.3 µM and inconclusive: 47.1 µM
AC50 [9]: inconclusive: 23 µM
AC50 [10]: inconclusive: 23 µM and inconclusive: 47.1 µM
outcome [11]: inactive

CN(C)C(=O)Nc1cccc(OC(=O)NC(C)(C)C)c1
AC50 [14]: inconclusive: 25 µM
AC50 [6]: inconclusive: 25 µM
AC50 [2]: inconclusive: 46.1 µM
AC50 [8]: inconclusive: 46.1 µM
AC50 [9]: inconclusive: 46.1 µM
AC50 [10]: inconclusive: 0.127 µM
AC50 [11]: inconclusive: 46.1 µM

CC(C)OC(=O)C(O)(c1ccc(Cl)cc1)c1ccc(Cl)cc1
AC50 [15]: inconclusive: 1.64 µM
AC50 [2]: active: 70.6 µM
AC50 [8]: active: 67.4 µM
AC50 [9]: active: 66.6 µM
AC50 [11]: active: 69.8 µM

CCCCCCCCCCCCCCn1cc[n+](C)c1
AC50 [2]: active: 82.2 µM and active: 60.1 µM
outcome [2]: inactive
AC50 [4]: active: 10.3 µM and active: 77.3 µM
AC50 [7]: active: 14 µM and active: 6.93 µM
AC50 [8]: active: 598 nM and active: 40 µM
AC50 [9]: active: 49.6 µM and inconclusive: 77.5 µM and active: 39.7 µM
AC50 [10]: active: 86.2 µM and active: 46.2 µM
outcome [10]: inactive
AC50 [11]: active: 63.9 µM and active: 63.4 µM

COc1ccc2c3c1O[C@H]1[C@@H](O)C=C[C@H]4[C@@H](C2)NCC[C@@]341
AC50 [2]: inconclusive: 23 µM
outcome [2]: inactive
AC50 [3]: inconclusive: 51.7 µM
AC50 [9]: inconclusive: 23 µM
AC50 [10]: inconclusive: 4.7 µM

c1ccc2c(c1)CCC2
AC50 [5]: inconclusive: 25 µM

O=[N+]([O-])c1ccc(Oc2ccc(C(F)(F)F)cc2[N+](=O)[O-])cc1
AC50 [14]: inconclusive: 25 µM
AC50 [6]: inconclusive: 25 µM
outcome [7]: inactive
outcome [10]: inactive

NC(=NCCCCCCN=C(N)/N=C(\N)Nc1ccc(Cl)cc1)/N=C(\N)Nc1ccc(Cl)cc1
outcome [5]: inactive

O=C(O)/C=C\C(=O)O
AC50 [2]: inconclusive: 1.87 µM
outcome [2]: inactive
AC50 [4]: inconclusive: 46.1 µM and inconclusive: 23 µM
outcome [4]: inactive
AC50 [7]: inconclusive: 42.6 µM
outcome [7]: inactive
AC50 [8]: inconclusive: 53 nM and inconclusive: 23 µM
outcome [8]: inactive

CN[C@H]1C[C@@H](N)[C@H](O)[C@@H](O[C@@H]2O[C@H](CO)[C@H](O)[C@@H]3OC4(O[C@H]23)O[C@H](C(N)CO)[C@H](O)[C@H](O)C4O)[C@@H]1O (some centres not stated)
AC50 [2]: inconclusive: 0.689 µM
outcome [2]: inactive
AC50 [3]: inconclusive: 23 µM
outcome [3]: inactive
AC50 [7]: inconclusive: 23 µM
AC50 [8]: inconclusive: 0.0115 µM
outcome [8]: inactive
AC50 [10]: inconclusive: 23 µM

CC(=O)[O][Pb]([c]1ccccc1)([c]1ccccc1)[c]1ccccc1
AC50 [6]: inconclusive: 1.88 µM
AC50 [2]: active: 0.458 µM
AC50 [3]: active: 23.3 µM
AC50 [4]: active: 4.03 µM
AC50 [7]: active: 38.7 µM
AC50 [8]: active: 0.655 µM
AC50 [9]: active: 32.7 µM
AC50 [10]: active: 1.32 µM
AC50 [11]: active: 32.5 µM
